{"source": "patent US8470888B2", "about": "“Botryllamides and method of inhibiting PGP in a mammal afflicted with cancer” (The United States of America, as represented by the …, priority 2008, dated 2013)", "key": {"ABCG2 [1]": {"molecular_target": "T1, ABCG2 (Homo sapiens (Human), UniProt Q9UNQ0)", "experiment": "Flow assay, BODIPY-prazosin efflux in transfected HEK293 cells expressing ABCG2", "type": "cell-based", "settings": "10 μM compound; 200 nM BODIPY-prazosin; +/− not defined"}, "ABCG2 [2]": {"molecular_target": "T1, ABCG2", "experiment": "ABCG2 Flow-MX assay", "type": "cell-based", "settings": "+/− not defined"}}, "note": "At least one compound was matched to its structure with a doubt left.", "data": [{"smiles": "CO/C(=C\\c1ccc(O)cc1)C(=O)N/C=C/c1ccc(OC)c(Br)c1", "note": "[Botryllamide D, botryllamide D]", "values": [{"measurement": "ABCG2 Flow-BODIPY-prazosin (efflux: treated/control ratio)", "setting": "ABCG2 [1]", "result": "+"}, {"measurement": "ABCG2 Flow-MX", "setting": "ABCG2 [2]", "result": "+"}]}]}
